Drawing on ChEMBL document CHEMBL1154791, “Constituents of Polyalthia longifolia var. pendula” (J Nat Prod, 2009), this text covers IC50 for 1 compound.

This assay deals with A549. The assay is described as follows: Cytotoxicity against human A549 cells after 72 hrs by MTT assay. The assay is classed as functional, cell-based. The following applies: A549, 72 h. The method in brief: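 Cells grown in RPMI1640 with 10% FBS, penicillin and streptomycin; log-phase cells seeded per well (MCF-7 1.0 × 10^4; A549 4.5 × 10^3). After 24 h, exposed to various concentrations for 72 h.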
For orientation: Tetrazolium assays rely on reduction of a dye to a coloured formazan, in cell work by metabolically active cells.

As to `COc1cccc2c1C(=O)c1c(O)c3c(c(O)c1C2=O)C[C@@](O)(C(=O)CO)C[C@@H]3O[C@H]1C[C@H](N)[C@H](O)[C@H](C)O1` [DOXORUBICIN], the IC50 (in general, the concentration at which inhibition is half-maximal) was 837 nM.
